Measured values from paper PMC7550686.

Experiments:
Assay in all cases: two-hybrid; AFP2 and truncations as LexA DBD baits, SnRK1α1 as B42 AD prey; mated yeast scored on LacZ (X-gal) and LEU (leu-) reporters in parallel, 4 days
[1] = target: AFP2B truncation fused to the LexA DNA binding domain (Arabidopsis thaliana)
[2] = target: AFP2EAR truncation fused to the LexA DNA binding domain (Arabidopsis thaliana)
[3] = target: AFP2C truncation fused to the LexA DNA binding domain (Arabidopsis thaliana)

B1: SnRK1α1 fused to the B42 activation domain (enzyme, UniProt Q38997 1-512)
chain: MDGSGTGSRSGVESILPNYKLGRTLGIGSFGRVKIAEHALTGHKVAIKILNRRKIKNMEMEEKVRREIKILRLFMHPHIIRLYEVIETPTDIYLVMEYVNSGELFDYIVEKGRLQEDEARNFFQQIISGVEYCHRNMVVHRDLKPENLLLDSKCNVKIADFGLSNIMRDGHFLKTSCGSPNYAAPEVISGKLYAGPEVDVWSCGVILYALLCGTLPFDDENIPNLFKKIKGGIYTLPSHLSPGARDLIPRMLVVDPMKRVTIPEIRQHPWFQAHLPRYLAVPPPDTVQQAKKIDEEILQEVINMGFDRNHLIESLRNRTQNDGTVTYYLILDNRFRASSGYLGAEFQETMEGTPRMHPAESVASPVSHRLPGLMEYQGVGLRSQYPVERKWALGLQSRAHPREIMTEVLKALQDLNVCWKKIGHYNMKCRWVPNSSADGMLSNSMHDNNYFGDESSIIENEAAVKSPNVVKFEIQLYKTRDDKYLLDLQRVQGPQFLFLDLCAAFLAQLRVL
binding [1]: binds
binding [2]: no binding
binding [3]: binds

No constants are given. Whether binding was seen depends on the method and setting. For part of these data: A result given as binding can be weak or reduced; the word gives no strength. Tags and fused reporters may be left off the sequences shown.
